Experimental data from the supplement of paper PMC11348887.
Where a name gives a salt, the structure may show the parent alone. This is one part of the list. Most entries show no effect beyond the scatter of the controls.

Experiments:
Details in all cases: 5 µM; treatment: days 7-14 after plating, readout day 21
[1] = system: hPSC-derived cortical neurons (WA09); experiment: nucleus area z-score vs screen plate; higher = larger nuclei (more mature)
[2] = system: hPSC-derived cortical neurons (WA09); experiment: total neurite length per nucleus (MAP2) z-score; higher = more neurite growth
[3] = system: hPSC-derived cortical neurons (WA09); experiment: nucleus roundness z-score vs screen plate; higher = rounder nuclei (more mature)
[4] = system: hPSC-derived cortical neurons (WA09); experiment: KCl-induced FOS+/EGR-1+ double-positive nuclei fraction z-score (KCl minus unstimulated); higher = stronger activity-induced IEG response

Row | SMILES | nucleus area z-score [1] | total neurite length per nucleus (z-score) [2] | nucleus roundness z-score [3] | KCl-induced FOS+/EGR-1+ double-positive nuclei fraction z-score [4]
1 | N#C[C@@H]1C[C@@H]2C[C@@H]2N1C(=O)[C@@H](N)C12CC3CC(CC(O)(C3)C1)C2 [Saxagliptin] | 1.22 | 0.21 | 0.129 | -0.0409
2 | COc1ccc2c(c1)c(CC(=O)N1CCOCC1)c(C)n2C(=O)c1ccc(Cl)cc1 | 0.29 | 0.686 | 0.684 | 3.06
3 | CC(C)C[C@H](NC(=O)[C@H](Cc1ccccc1)C[C@@H](O)[C@H](Cc1ccccc1)NC(=O)OC(C)(C)C)C(=O)N[C@@H](Cc1ccccc1)C(N)=O | 0.412 | 1.33 | 1.33 | 0.429
4 | Nc1ccc(C(=O)O)c(O)c1 [Sodium 4-Aminosalicylate] | 0.0331 | -0.0372 | -0.316 | -0.76
5 | CN1CCN(c2nc(C3=C(c4c[nH]c5ccccc45)C(=O)NC3=O)c3ccccc3n2)CC1 [Sotrastaurin] | -0.125 | 0.887 | 0.443 | 0.598
6 | C[C@H](Oc1ccc(S(C)(=O)=O)cc1C(=O)N1CCN(c2ncc(C(F)(F)F)cc2F)CC1)C(F)(F)F [Bitopertin] | 2.29 | -2.12 | -1.88 | -0.278
7 | CCOC(=O)c1ccc(N)cc1 [Benzocaine hydrochloride] | -0.278 | 0.562 | 0.831 | -0.168
8 | COc1cc2c(Oc3ccc(NC(=O)C4(C(=O)Nc5ccc(F)cc5)CC4)cc3F)ccnc2cc1OCCCN1CCOCC1 | -3.61 | -0.446 | -1.73 | -1.65
9 | COc1cc(N2CCC(N)CC2)ccc1Nc1ncc(Cl)c(-c2c[nH]c3ccccc23)n1 | -7.71 | -0.539 | -6.61 | -0.494
10 | OC1(c2ccc(Cl)c(C(F)(F)F)c2)CCN(CCCC(c2ccc(F)cc2)c2ccc(F)cc2)CC1 [Penfluridol] | -14.8 | -4.78 | -8.13 | -0.313
11 | O=C1NC(=O)/C(=C/c2ccc3nccc(-c4ccncc4)c3c2)S1 | -1.87 | -0.981 | 0.555 | -0.709
12 | CCOC(=O)O[C@]1(C(=O)OCCl)CC[C@H]2[C@@H]3CCC4=CC(=O)C=C[C@]4(C)[C@H]3[C@@H](O)C[C@@]21C [Loteprednol etabonate] | -0.276 | 0.0728 | -0.559 | -0.344
13 | [O-][n+]1cccc(CO)c1 [Mepiroxol] | 0.234 | 0.617 | 0.0698 | -0.835
14 | CC1C(=O)OC2C(O)C34C5CC(C(C)(C)C)C36C(OC(=O)C6O)OC4(C(=O)O5)C12O (stereo unspecified) [Ginkgolide B] | -0.0879 | 0.727 | 0.529 | 0.603
15 | CC(C)(C(=O)NCC(F)(F)C(F)(F)F)C(=O)N[C@@H]1C(=O)Nc2ccccc2-c2ccccc21 | -1.84 | -0.819 | -0.0299 | -0.564
16 | CN1CCC(NC(=O)c2cc(-c3c(O)cc(O)cc3Oc3ccc([N+](=O)[O-])cc3)on2)CC1 | -8.36 | -3.7 | -4.52 | -0.747
17 | CN(C)c1ccc2c(c1)Sc1cc(N(C)C)ccc1N2 [TRx0237 (LMTX) mesylate] | -5.1 | 3.39 | -0.202 | 1.56
18 | CO[C@H]1C(=O)[C@]2(C)[C@@H](OC)C[C@H]3OC[C@@]3(OC(C)=O)[C@H]2[C@H](OC(=O)c2ccccc2)[C@]2(O)C[C@H](OC(=O)[C@H](O)[C@@H](NC(=O)OC(C)(C)C)c3ccccc3)C(C)=C1C2(C)C [Cabazitaxel] | -1.61 | 1.1 | -2.73 | -0.195
19 | CN(c1ccccc1CNc1nc(Nc2ccc3c(c2)CC(=O)N3)ncc1C(F)(F)F)S(C)(=O)=O | -1.14 | -0.0854 | -1.47 | -1.4

Only nucleus roundness z-score [3] and nucleus area z-score [1], for some of the entries so far:

| Row | SMILES | nucleus roundness z-score [3] | nucleus area z-score [1] |
| --- | --- | --- | --- |
| 3 | CC(C)C[C@H](NC(=O)[C@H](Cc1ccccc1)C[C@@H](O)[C@H](Cc1ccccc1)NC(=O)OC(C)(C)C)C(=O)N[C@@H](Cc1ccccc1)C(N)=O | 1.33 | 0.412 |
| 4 | Nc1ccc(C(=O)O)c(O)c1 [Sodium 4-Aminosalicylate] | -0.316 | 0.0331 |
